The entries are a selection whose mix differs from that of the whole data set. Calls are pooled over several reports, among them a noisy single-well screen. The list shows a part of the results.

Details in all cases: stereoisomer not certain
Experiment [1] has as its system T1, OR5H1.
T1 sequence (whole entry): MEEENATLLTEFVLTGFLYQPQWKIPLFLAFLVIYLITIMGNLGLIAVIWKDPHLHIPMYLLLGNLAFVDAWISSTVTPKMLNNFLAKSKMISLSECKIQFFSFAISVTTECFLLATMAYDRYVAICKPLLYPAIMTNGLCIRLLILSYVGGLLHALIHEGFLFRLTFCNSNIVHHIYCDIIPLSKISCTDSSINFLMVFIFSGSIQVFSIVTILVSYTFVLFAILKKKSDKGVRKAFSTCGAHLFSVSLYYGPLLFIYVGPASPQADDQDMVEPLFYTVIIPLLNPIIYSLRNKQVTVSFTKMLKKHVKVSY
Summed up: (§1)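 Values were gathered from published papers (main text and supplementary material), with extra details requested from the original authors when needed, and checked for typos and inconsistencies. Each receptor–molecule pair is called responsive (active) if the original authors judged the measured signal statistically different from baseline, and non-responsive (inactive) otherwise. Assay methods varied by source, often transient mammalian cell-line luciferase assays. Recorded details include cell line, G-protein, co-transfected protein and tags.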

For experiment [2], the system named is T2, OR5H2.
T2 sequence (whole entry): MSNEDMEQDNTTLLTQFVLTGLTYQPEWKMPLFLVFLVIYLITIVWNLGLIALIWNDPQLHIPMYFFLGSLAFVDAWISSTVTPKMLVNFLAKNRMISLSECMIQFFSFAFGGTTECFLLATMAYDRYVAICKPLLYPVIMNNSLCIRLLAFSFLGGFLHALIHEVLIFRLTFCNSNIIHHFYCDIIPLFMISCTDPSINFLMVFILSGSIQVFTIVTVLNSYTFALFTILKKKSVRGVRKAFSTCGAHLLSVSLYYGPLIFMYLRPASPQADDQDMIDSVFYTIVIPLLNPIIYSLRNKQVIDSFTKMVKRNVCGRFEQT
In a few lines: as §1

The subject of experiment [3] is T3, OR5H2.
T3 sequence (whole entry): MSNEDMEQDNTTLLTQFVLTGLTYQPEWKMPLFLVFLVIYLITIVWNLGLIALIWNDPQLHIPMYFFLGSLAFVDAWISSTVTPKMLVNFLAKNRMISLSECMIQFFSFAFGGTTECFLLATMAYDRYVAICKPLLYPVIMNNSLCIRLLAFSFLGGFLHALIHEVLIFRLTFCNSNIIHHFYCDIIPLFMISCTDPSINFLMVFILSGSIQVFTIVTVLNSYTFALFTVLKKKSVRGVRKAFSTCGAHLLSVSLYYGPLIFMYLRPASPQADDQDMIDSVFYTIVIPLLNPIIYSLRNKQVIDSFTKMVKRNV
In a few lines: as §1
The source holds these as a separate data set.

Experiment [4] deals with T4, OR5H6.
T4 sequence (whole entry): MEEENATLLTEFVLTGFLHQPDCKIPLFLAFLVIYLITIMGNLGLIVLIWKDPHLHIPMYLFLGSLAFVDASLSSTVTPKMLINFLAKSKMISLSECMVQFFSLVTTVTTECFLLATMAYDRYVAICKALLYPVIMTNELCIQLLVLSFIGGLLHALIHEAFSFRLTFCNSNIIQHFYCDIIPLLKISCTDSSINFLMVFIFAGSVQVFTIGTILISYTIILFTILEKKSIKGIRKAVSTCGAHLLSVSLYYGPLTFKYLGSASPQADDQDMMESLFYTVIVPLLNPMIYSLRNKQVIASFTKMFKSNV
Summed up:
as §1

Experiment [5] concerns T5, OR5H6.
T5 sequence (whole entry): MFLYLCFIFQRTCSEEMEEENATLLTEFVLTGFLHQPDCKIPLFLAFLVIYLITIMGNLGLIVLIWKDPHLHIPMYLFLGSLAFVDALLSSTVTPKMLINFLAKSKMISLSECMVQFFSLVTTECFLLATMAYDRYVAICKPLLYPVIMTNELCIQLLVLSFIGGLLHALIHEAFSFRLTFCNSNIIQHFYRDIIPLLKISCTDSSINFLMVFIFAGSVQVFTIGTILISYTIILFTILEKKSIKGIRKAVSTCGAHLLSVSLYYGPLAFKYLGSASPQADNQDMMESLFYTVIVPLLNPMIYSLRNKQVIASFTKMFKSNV
In a few lines: as §1
This is another data set of the same source.

Experiment [6] concerns the target T6, OR5I1 (Homo sapiens) (UniProt Q13606).
T6 sequence (whole entry): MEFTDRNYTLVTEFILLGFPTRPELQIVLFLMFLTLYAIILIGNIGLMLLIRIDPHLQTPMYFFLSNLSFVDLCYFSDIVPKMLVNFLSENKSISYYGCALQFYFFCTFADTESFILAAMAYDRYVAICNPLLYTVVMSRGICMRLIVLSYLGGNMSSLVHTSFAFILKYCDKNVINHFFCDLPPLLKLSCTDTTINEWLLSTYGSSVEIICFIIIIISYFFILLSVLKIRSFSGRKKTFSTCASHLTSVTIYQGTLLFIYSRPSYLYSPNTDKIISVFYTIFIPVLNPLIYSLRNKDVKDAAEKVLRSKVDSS
In a few lines:
as §1

Experiment [7] concerns the target T7, OR5J2 (Homo sapiens) (UniProt Q8NH18).
T7 sequence (whole entry): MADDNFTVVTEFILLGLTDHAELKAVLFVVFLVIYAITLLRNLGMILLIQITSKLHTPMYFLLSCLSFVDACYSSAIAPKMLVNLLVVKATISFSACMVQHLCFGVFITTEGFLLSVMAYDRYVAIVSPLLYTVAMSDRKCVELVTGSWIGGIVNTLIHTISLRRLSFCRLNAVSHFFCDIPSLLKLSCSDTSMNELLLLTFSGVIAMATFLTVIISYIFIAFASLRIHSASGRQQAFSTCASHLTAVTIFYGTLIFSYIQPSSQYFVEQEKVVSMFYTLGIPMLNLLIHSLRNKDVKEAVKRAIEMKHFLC
In a few lines: as §1

For the compound `CCCCO`, the “odorant receptor agonist call” value in experiment [1], in experiment [2], in experiment [3], in experiment [4], in experiment [5] and in experiment [6] was “inactive” throughout. The “odorant receptor agonist call” value in experiment [7] was “inactive”.
Regarding `CC(=O)OC1CC2CCC1(C)C2(C)C` (stereo unspecified), the “odorant receptor agonist call” value in experiment [1], in experiment [2], in experiment [3], in experiment [4], in experiment [5] and in experiment [6] was “inactive” in each case. The “odorant receptor agonist call” value in experiment [7] was “inactive”.
`c1cnccn1`: the “odorant receptor agonist call” value in experiment [1], in experiment [2], in experiment [3], in experiment [4], in experiment [5] and in experiment [6] was “inactive” each time. For the same compound, the “odorant receptor agonist call” value in experiment [7] was “inactive”.
Consider `CCCCCCOC(=O)CCC`, for which the “odorant receptor agonist call” value in experiment [1], in experiment [2], in experiment [3], in experiment [4], in experiment [5] and in experiment [6] was “inactive” in each case. Besides, in experiment [7], the “odorant receptor agonist call” value is “inactive”.
For `O=CCc1ccccc1`, the “odorant receptor agonist call” value in experiment [1], in experiment [2], in experiment [3], in experiment [4], in experiment [5] and in experiment [6] was “inactive” in each case. In experiment [7], the “odorant receptor agonist call” value was “active”.
Regarding `C=C(C)C1CCC2=CC(=O)CC(C)C2(C)C1` (stereo unspecified), the “odorant receptor agonist call” value in experiment [7] was “inactive”.
As for `CC(C)C=O`, the “odorant receptor agonist call” value in experiment [1], in experiment [2], in experiment [3], in experiment [4], in experiment [5] and in experiment [6] was “inactive” in each case. For the same compound, in experiment [7], the “odorant receptor agonist call” value was “inactive”.
With `CCCCCC(=O)O`, the “odorant receptor agonist call” value in experiment [1], in experiment [2], in experiment [3], in experiment [4], in experiment [5] and in experiment [6] was “inactive” in each case. In experiment [7], the “odorant receptor agonist call” value was “inactive”.
`CC(C)(O)CCCC1=CCC(C=O)CC1` (stereo unspecified): the “odorant receptor agonist call” value in experiment [7] is “inactive”.
With `CCCCCCCC=O`, the “odorant receptor agonist call” value in experiment [1], in experiment [2], in experiment [3], in experiment [4], in experiment [5] and in experiment [6] was “inactive” each time. In addition, the “odorant receptor agonist call” value in experiment [7] is “inactive”.
Take `C=CCSCC=C`: the “odorant receptor agonist call” value in experiment [1], in experiment [2], in experiment [3], in experiment [4], in experiment [5] and in experiment [6] was “inactive” each time. The “odorant receptor agonist call” value in experiment [7] is “inactive”.
Turning to `CCCCCOC(C)=O`, the “odorant receptor agonist call” value in experiment [1], in experiment [2], in experiment [3], in experiment [4], in experiment [5] and in experiment [6] was “inactive” in each case. Also, the “odorant receptor agonist call” value in experiment [7] is “inactive”.
Regarding `O=C1CCCCCCCCCCCCCCO1`, the “odorant receptor agonist call” value in experiment [1], in experiment [2], in experiment [3], in experiment [4], in experiment [5] and in experiment [6] was “inactive” in each case. In experiment [7], the “odorant receptor agonist call” value was “inactive”.
With `CC(=O)C(C)=O`, the “odorant receptor agonist call” value in experiment [1], in experiment [2], in experiment [3], in experiment [4], in experiment [5] and in experiment [6] was “inactive” throughout. In experiment [7], the “odorant receptor agonist call” value is “inactive”.

The values are drawn from the M2OR odorant receptor database.
